In PubChem BioAssay AID504467 (National Center for Advancing Translational Sciences (NCATS), 2011):
Hit rate of the full screen: of about 330,000 compounds, about 7,700 (2.3%) were called active. Inconclusive means that the source gave no clear call. Such entries were picked first, then a sample of the others. Calls follow the shape of the dose curve; as a rule, active = well fitted inhibition curve with a large enough effect; inconclusive = small, poorly fitted or top-dose-only effect, or effect the other way; inactive = flat fitted curve, though single readings scatter. Where the call is inconclusive, the potency comes from a doubtful curve fit.

Test: qHTS screen for small molecules that inhibit ELG1-dependent DNA repair in human embryonic kidney (HEK293T) cells expressing luciferase-tagged ELG1; also: nearly all actives have a fitted effect of over 55% in size
Settings: HEK293T ELG1-luciferase reporter, luminescence, 16 h, DNA damage induced by 5-fluorouridine; series mostly up to 46.1 µM
Outline: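 5-Fluorouridine DNA damage + compound/DMSO, 2,000 cells/well, 16 h, 37 °C/5% CO2. ONE-Glo, 30 min RT, luminescence. Readout = decrease in reporter signal.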
Potency is read from the fitted curve at half-maximal effect.

For `COc1cccc(CNc2ccc(S(N)(=O)=O)cc2)c1OCc1ccccc1F`, which Potency is on record?
The Potency was inconclusive: 14.6 µM [inhibitor, partial curve].

Which Potency does the source give for `CCCCn1c(O)c(/C=N/N2CCCCC2c2cccnc2)c(=O)[nH]c1=S` (stereo unspecified) here?
Its Potency is inconclusive: 16.4 µM [activator, single point].

For `Cn1cccc1/C=C1\C(=O)NC(=O)N(Cc2ccco2)C1=O`, which Potency is on record?
The Potency was “inactive”.

Which Potency does the source give for `O=C1NC(=O)C2(Cc3c(nc4ccccn4c3=O)N3CCCCCC32)C(=O)N1Cc1ccccc1` (stereo unspecified) here?
Its Potency is inconclusive: 12.6 µM [inhibitor, partial curve, poor fit].

For `Cc1cccc(OP(N)(=O)Oc2cccc(C)c2C)c1C`, which Potency is on record?
Its Potency is “inactive”.

With `CC1OC(NCCc2ccccc2)C(O)C(O)C1O` (stereo unspecified) as the compound, how does the Potency read?
Its Potency is “inactive”.

Which Potency does the source give for `COc1ccc2c(C)c(CC(=O)N3C[C@H]4C[C@@H](C3)c3cccc(=O)n3C4)c(=O)oc2c1` here?
The Potency was inconclusive: 1.16 µM [activator, single point].

For `CC(=O)c1c(C)n(Cc2ccccc2)c2ccc(O)cc12`, which Potency is on record?
Its Potency is active: 23.1 µM.

Which Potency does the source give for `CC(C)(C)C(=O)NC1CCSC1=O` (stereo unspecified) here?
Its Potency is “inactive”.

With `O=C(OCC(=O)c1ccc([N+](=O)[O-])cc1)/C(=C/c1ccc(Cl)cc1)NC(=O)c1ccccc1` as the compound, how does the Potency read?
Its Potency is “inactive”.

With `Cc1cc(C)cc(NC(=O)Cn2c(=O)oc3cc(S(=O)(=O)N4CC(C)CC(C)C4)ccc32)c1` (stereo unspecified) as the compound, how does the Potency read?
The Potency was inconclusive: 16.4 µM [inhibitor, single point].

For `Cc1ccc2c(c1)N(N=O)CCC2`, which Potency is on record?
The Potency was “inactive”.

For `CCC(=NCc1ccco1)c1c(O)n(C2CCCCC2)c(=O)[nH]c1=O`, which Potency is on record?
Its Potency is inconclusive: 32.6 µM [inhibitor, single point].

With `CCN1CCN(Cc2ccc(OC(F)(F)F)cc2)CC1` as the compound, how does the Potency read?
The Potency was “inactive”.

For `CCOc1ccc(N2C(=O)CC(=O)NC2=O)cc1`, which Potency is on record?
Its Potency is inconclusive: 35.5 µM [inhibitor, single point].

Which Potency does the source give for `Cc1nc2ccccc2c(=O)n1-c1cc([N+](=O)[O-])cc([N+](=O)[O-])c1` here?
The Potency was “inactive”.

For `CCOP(=O)(Cc1cc(C(C)=O)c(C)o1)OCC`, which Potency is on record?
The Potency was “inactive”.

With `CCOP(=O)(OCC)C(O)c1ccc2c(c1)OCO2` (stereo unspecified) as the compound, how does the Potency read?
Its Potency is “inactive”.

Which Potency does the source give for `COc1c(C)cc(C(=O)C2CCCN(C3CCOCC3)C2)cc1C` (stereo unspecified) here?
Its Potency is inconclusive: 25.9 µM [activator, partial curve, poor fit].

With `O=C(C[N+]12CCC(CC1)C(CO)C2)c1ccc([N+](=O)[O-])cc1` (stereo unspecified) as the compound, how does the Potency read?
Its Potency is active: 9.2 µM.

Which Potency does the source give for `O=c1c2ccccc2nc(-c2ccc(-c3ccccc3)cc2)n1-c1ccncc1` here?
The Potency was inconclusive: 29.1 µM [inhibitor, single point].

For `CCCNc1oc(-c2cccc3ccccc23)nc1C#N`, which Potency is on record?
The Potency was inconclusive: 11.6 µM [activator, partial curve].

For `CCCCCCn1c(O)c(C=NC2CCCCC2N)c(=O)[nH]c1=O` (stereo unspecified), which Potency is on record?
The Potency was “inactive”.

For `OC1/C(=C/c2ccc(C(F)(F)F)cc2)N2CCC1CC2` (stereo unspecified), which Potency is on record?
The Potency was inconclusive: 23.1 µM [activator, partial curve].

With `O=P(OC1CCCCC1)(OC1CCCCC1)C(O)c1ccc(Cl)cc1Cl` (stereo unspecified) as the compound, how does the Potency read?
The Potency was inconclusive: 16.4 µM [inhibitor, partial curve, poor fit].

For `COc1ccc(C(=O)C2CCCN(C3CSCCSC3)C2)cc1OC` (stereo unspecified), which Potency is on record?
Its Potency is inconclusive: 20.6 µM [inhibitor, single point].

Which Potency does the source give for `NCCc1c[nH]c2ccc(OCc3ccccc3)cc12` here?
The Potency was “inactive”.

With `CCC1(c2ccccc2)C(=O)N(COC)C(=O)N(COC)C1=O` as the compound, how does the Potency read?
Its Potency is “inactive”.

For `COCCO[C@H]1CC[C@@]2(C)C(=CCC3C2CC[C@@]2(C)C3CC[C@]2(C)O)C1` (stereo partly specified), which Potency is on record?
The Potency was active: 18.3 µM.

Which Potency does the source give for `O=C(C[N+]12CCC(CC1)C(CO)C2)c1ccc(Br)cc1` (stereo unspecified) here?
Its Potency is inconclusive: 20.6 µM [activator, single point].

Which Potency does the source give for `O=C(Nc1ccc(F)cc1)Oc1ccc[nH]c1=O` here?
The Potency was inconclusive: 29.1 µM [inhibitor, single point].

For `CCNCCNc1ccc([N+](=O)[O-])c2cccnc12`, which Potency is on record?
Its Potency is inconclusive: 18.3 µM [activator, partial curve, poor fit].

Which Potency does the source give for `Cc1cc(C(C)(C)C)cc(C)c1CC1=NCCN1` here?
The Potency was inconclusive: 23.1 µM [inhibitor, partial curve, poor fit].

For `COC(=O)C1=C(c2ccc(F)cc2OCc2ccccc2)C[C@@H]2CC[C@H]1N2C(=O)NCc1ccccc1OC`, which Potency is on record?
The Potency was inconclusive: 20.6 µM [inhibitor, single point].

With `COc1ccccc1N=Cc1c(O)n(C)c(=O)n(C)c1=O` as the compound, how does the Potency read?
Its Potency is inconclusive: 18.4 µM [activator, single point].

For `Cc1ccc(N(C)C(=O)Oc2cccc3cccnc23)cc1`, which Potency is on record?
Its Potency is “inactive”.

With `O=C(c1ccccc1)C1NC1c1ccccc1` (stereo unspecified) as the compound, how does the Potency read?
The Potency was inconclusive: 29.1 µM [activator, single point].

With `CN(C)C(=O)Oc1ccc(-c2cn3cc(C(F)(F)F)ccc3n2)cc1` as the compound, how does the Potency read?
Its Potency is inconclusive: 10.3 µM [activator, partial curve].

Which Potency does the source give for `Cn1c(O)c(C(=Nc2ccccc2)SCc2ccccc2Cl)c(=O)n(C)c1=O` here?
The Potency was inconclusive: 14.6 µM [inhibitor, partial curve].

For `COc1ccc(OCCOc2cccc(C=C3C(=O)NC(=O)NC3=O)c2)cc1`, which Potency is on record?
Its Potency is inconclusive: 0.461 µM [activator, partial curve].

With `O=C(N=Nc1c(O)n(C2OC(=O)c3ccccc32)c2ccccc12)c1ccco1` (stereo unspecified) as the compound, how does the Potency read?
The Potency was inconclusive: 2.91 µM [activator, partial curve].
